Results: patent US20060040876A1, “Modulation of peroxisome proliferator-activated receptors” (priority 2004, published 2006)
At least one compound was matched to its structure with a doubt left.

Legend:
Type in all cases: cell-based, mouse
[1] = tested on: IRS-2; experiment: IRS-2 protein expression in 3T3-L1 cells; details: in the presence of insulin and dexamethasone
Text: (§1) Also examined was the ability of 15-keto PGE2 to induce protein expression of adipogenesis-specific, PPAR-gamma target genes, i.e., IRS-1 and -2.

[2] = tested on: IRS-1; experiment: IRS-1 protein expression in 3T3-L1 cells
Text: as §1

[3] = tested on: aP2; experiment: aP2 expression in 3T3-L1 cells; details: even in the absence of MIX

## CN(CCOc1ccc(CC2SC(=O)NC2=O)cc1)c1ccccn1 (stereo not drawn) [BRL49653, reference compound]
[1]
  IRS-2 expression: dramatically increased
[2]
  amount of IRS-1 protein: did not increase
[3]
  expression of aP2: strongly induced
